Chains of the proteins cited; added tags and fusions are not shown. Residues count along the entry.
UniProt P19793, 223-462: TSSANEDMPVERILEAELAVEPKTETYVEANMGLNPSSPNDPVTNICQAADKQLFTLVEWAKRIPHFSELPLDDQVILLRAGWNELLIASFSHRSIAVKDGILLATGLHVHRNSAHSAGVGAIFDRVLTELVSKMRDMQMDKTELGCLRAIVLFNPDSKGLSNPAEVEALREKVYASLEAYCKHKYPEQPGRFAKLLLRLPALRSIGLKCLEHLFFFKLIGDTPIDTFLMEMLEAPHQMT

According to publication PMC6447056 (Bioorganic chemistry, 2019):

Target: RXRα (Homo sapiens, UniProt P19793)
Test: biochemical

CC(C)c1c(C(=O)Nc2ccccc2)c(-c2ccccc2)c(-c2ccc(F)cc2)n1CC[C@@H](O)C[C@@H](O)CC(=O)O [atorvastatin]
Kd: 10.3 µM
